Laboratory results from US10039756B2, “Reducing memory loss in mammals suffering from alzheimer's disease” (The Penn State Research Foundation, priority 2013, dated 2018).

System: 5xFAD mice
Test: Y-maze spontaneous alternation task
Assay type: in vivo, mouse
Details: repeated injection for one week
Description: L-655,708 was dissolved at 1 mg/mL in DMSO, and frozen in storage aliquots. The working solution was diluted 10 times in normal saline solution. […] The last injection was administrated 30 minutes before behavioral test.
Spontaneous alternation performance was tested as described elsewhere (Oakley et al., J. Neurosci., 26(40):10129-10140 (2006)). […] It allows the assessment of hippocampus-dependent spatial working memory. Each mouse was placed in the center of a symmetrical Y-maze and was allowed to explore freely through the maze during an 8 minute session. The first two minutes were not included for data analysis because mice were exploring new environment. The total number and the sequence of arm entries in the last 6 minutes were recorded and analyzed. Arm entry was defined as the hind paws of the mice had been completely placed in the arm. Analysis was done blind. The percentage of alternation is the number of triads containing entries into all three arms divided by the maximum possible alternations (the total number of arms entered minus 2)×100.
A behavioral analysis was conducted to test the effect of enhanced tonic inhibition on the cognitive function of 5xFAD animals. […] Therefore, it was concluded that the abnormal tonic inhibition in DG is an important contributing factor toward the learning and memory deficit in AD.

| Structure (SMILES) | total number of arm entries, vs WT and 5xFAD groups |
| --- | --- |
| CCOC(=O)c1ncn2c1C1CCCN1C(=O)c1cc(OC)ccc1-2 [L-655,708, 11,12,13,13a-tetrahydro-7-methoxy-9-oxo-9H-imidazo[1,5-a]pyrrolo[2,1-c][1,4]benzodiaz-epine-1-carboxylic acid, ethyl ester] | not different |
| COc1ccc(C(OCCN2CCC[C@H](C(=O)O)C2)(c2ccc(OC)cc2)c2ccc(OC)cc2)cc1 [SNAP-5114, (S)-1-[2-[tris(4-methoxyphenyl)methoxy]ethyl]-3-piperidinecarboxylic acid] | not different |
